At least one structure is not confirmed: it was looked up by name or label, or the drawing left a doubt.
System: choline acetyltransferase (ChAT)
Experiment: choline acetyltransferase (ChAT) activity in rat septal neurons cultured on rat hippocampal astrocyte feeder layer
Type: cell-based
Conditions: compound A 10-1000 nM
Procedure: This experiment was done by a method reported by Pharmacology of Neurotrophic Factors, Ann. Rev. Pharmacol. Toxicol., Vol.37, pages 239-267, (1997).
Astrocytes were obtained from the new-born Sprague-Dawley (SD) rat hippocampus by trypsin digestion and cultured in a serum-containing medium in a culture flask. The confluent astrocytes were harvested and seeded on 96 well plates at the density of 5×10^4 cells/well and served as the feeder layer for neurons after halting the overgrowth with 10 μM cytosine arabinoside. Neurons were taken from the septal area of E17 fetal SD rats by trypsin digestion and seeded on the astrocyte feeder layer at the density of 7.5×10^4 cells/well in a serum-free medium. On the next day, the compound was added to the culture with or without 3 ng/ml recombinant human NGF (rhNGF) and cultured further for 7 days. Then cells were lysed with 5 mM Tris-HCl (pH 7.4)/0.1% Triton X-100 and choline acetyltransferase (ChAT) activity was measured radiometrically by the method of Fonnum.

CNC(=O)Oc1ccc2c(c1)[C@]1(C)CCN(C)[C@@H]1N2C [physostigmine]
ChAT activity (in the presence of 3 ng/ml rhNGF, cultured 7 days (FIG. 2)): did not affect ChAT activity
ChAT activity (without rhNGF, cultured 7 days, rat septal neurons on astrocyte feeder layer (FIG. 1)): did not affect ChAT activity

Source: patent US6500820B1, “Pharmaceutical composition for neurotrophic action” (priority 1998, dated 2002)
